Data reported in patent publication US4935434A, “Antiarthritic isoxazole-4-carboxamides” (Bristol-Myers Company, priority 1988, dated 1990).
At least one read-out could not be matched to a standard name with certainty.

System: adjuvant-induced polyarthritis
Assay: Modified developing adjuvant arthritis in rats (adjuvant-induced polyarthritis, AIP)
Format: in vivo, male Lewis rats
Experimental: A. Modified developing adjuvant arthritis in rats.
This test is based on the procedure originally described by Pearson (Proc. Soc. Biol. Med., 1956, pp 91-5). Each experimental group used six male Lewis rats weighing approx. 250 gm. Arthritis was produced by a single intradermal injection of Mycobacterium butyricum (0.6 mg in 0.1 ml mineral oil) into the base of the tail. Test compounds were administered orally, once daily, starting on the day of inoculation (day 1) through day 8. The initial dosage was reduced during this period when side effects were observed. The paw volume (average of two hind paws) was measured by the mercury displacement method at least twice weekly during the course of the experiment (40 to 42 days). The efficacy of a compound was expressed as the percent reduction of hind paw volume of treated vs. untreated rats using the following equation: [formula]
^a once daily, p.o., from d. 1-8 (unless otherwise specified).
^b % inhibition of paw edema: 0 = <25; + = 25-<40; ++ = 40-<60; +++ =

[1] = 50 mg/kg (d. 1-3), 25 mg/kg (d. 4-8) once daily p.o.
[2] = 100 mg/kg (d. 1-2), 50 mg/kg (d. 3-4) once daily p.o.

Structure (SMILES): O=C(Nc1ccc(C(F)(F)F)cc1)c1cnoc1C1CC1 [Example 7, 5-Cyclopropylisoxazole-4-carboxylic acid 4-trifluoromethylanilide]
- AIP % inhib. (% inhibition of paw edema) d. 20-22 [1]: +++ (60-<80)
- AIP % inhib. (% inhibition of paw edema) d. 40-42 [1]: ++ (40-<60)

Structure (SMILES): Cc1oncc1C(=O)NCc1ccc(C(F)(F)F)cc1 [Example 8, 5-Methylisoxazole-4-(N-4-trifluoromethylbenzyl)carboxamide]
- AIP % inhib. (% inhibition of paw edema) d. 20-22 [2]: +++ (60-<80)
- AIP % inhib. (% inhibition of paw edema) d. 40-42 [2]: +++ (60-<80)
